Data published in paper PMC11961634.
These are yes or no findings as the source states them, for the method shown. Some results given as binding are weak or reduced against the parent protein; the word gives no strength.

Sequences of proteins named here, by UniProt entry; tags and fusion partners are left off.
UniProt P42224: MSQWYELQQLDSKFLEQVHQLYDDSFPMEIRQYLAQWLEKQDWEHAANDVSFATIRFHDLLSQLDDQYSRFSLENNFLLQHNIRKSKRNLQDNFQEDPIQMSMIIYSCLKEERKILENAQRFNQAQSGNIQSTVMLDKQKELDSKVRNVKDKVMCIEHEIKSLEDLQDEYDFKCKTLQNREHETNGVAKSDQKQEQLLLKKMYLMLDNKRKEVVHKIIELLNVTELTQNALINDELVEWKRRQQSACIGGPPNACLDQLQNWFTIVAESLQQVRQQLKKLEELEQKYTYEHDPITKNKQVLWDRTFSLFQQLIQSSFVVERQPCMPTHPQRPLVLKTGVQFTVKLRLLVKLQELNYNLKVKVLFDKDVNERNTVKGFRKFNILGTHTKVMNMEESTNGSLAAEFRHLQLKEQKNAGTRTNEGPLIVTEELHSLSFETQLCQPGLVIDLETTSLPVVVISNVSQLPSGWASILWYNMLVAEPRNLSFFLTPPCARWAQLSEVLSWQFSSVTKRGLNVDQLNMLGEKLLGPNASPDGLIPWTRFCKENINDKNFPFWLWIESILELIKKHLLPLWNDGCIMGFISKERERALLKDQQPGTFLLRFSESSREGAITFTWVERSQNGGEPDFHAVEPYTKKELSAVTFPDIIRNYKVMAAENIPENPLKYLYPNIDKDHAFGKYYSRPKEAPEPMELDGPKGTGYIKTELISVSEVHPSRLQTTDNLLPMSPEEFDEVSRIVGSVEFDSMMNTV
UniProt Q13557: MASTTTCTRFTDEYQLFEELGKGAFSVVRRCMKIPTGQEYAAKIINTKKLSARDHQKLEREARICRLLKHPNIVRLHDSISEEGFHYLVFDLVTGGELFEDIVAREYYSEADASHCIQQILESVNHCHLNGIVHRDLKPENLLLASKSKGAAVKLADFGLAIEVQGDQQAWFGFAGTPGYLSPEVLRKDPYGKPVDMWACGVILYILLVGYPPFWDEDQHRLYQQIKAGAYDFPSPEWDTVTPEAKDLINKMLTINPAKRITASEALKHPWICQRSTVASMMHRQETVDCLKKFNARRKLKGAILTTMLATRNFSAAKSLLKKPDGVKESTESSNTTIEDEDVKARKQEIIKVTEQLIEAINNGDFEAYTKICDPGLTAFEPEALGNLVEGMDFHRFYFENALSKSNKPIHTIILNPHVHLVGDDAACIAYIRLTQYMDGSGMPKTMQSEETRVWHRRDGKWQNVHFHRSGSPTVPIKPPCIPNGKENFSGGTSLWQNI

Target: STAT1-GST Fusion Protein (UniProt P42224)
Assay: pull-down; 5 ug STAT1-GST fusion protein and CAMK2D-His protein mixed with pre-washed GST-labeled protein magnetic beads (GST protein in the control group), GST-pull-down buffer, rotated overnight at 4 °C, washed three times, western blot; both purified

binding: binds
Substance: Recombinant CAMK2D-His protein (from UniProt Q13557 1-499) (enzyme)
